The source of these data is paper PMC2706988.

Chains of the proteins cited; added tags and fusions are not shown. Lines headed by an entry give the natural chain unless they say otherwise; changes in a name come on top. Residues count along the entry.
VSV-NRP-ΔN (aa 300–577) (Q96CV9, residues 300-577): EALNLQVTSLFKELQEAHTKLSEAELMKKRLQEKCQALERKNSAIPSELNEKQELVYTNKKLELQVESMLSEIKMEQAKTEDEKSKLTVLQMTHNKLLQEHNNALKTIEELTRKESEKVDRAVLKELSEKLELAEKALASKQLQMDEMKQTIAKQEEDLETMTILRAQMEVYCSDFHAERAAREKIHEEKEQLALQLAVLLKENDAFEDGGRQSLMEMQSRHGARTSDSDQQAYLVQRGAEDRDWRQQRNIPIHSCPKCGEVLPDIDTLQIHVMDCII
UniProt Q86VP1: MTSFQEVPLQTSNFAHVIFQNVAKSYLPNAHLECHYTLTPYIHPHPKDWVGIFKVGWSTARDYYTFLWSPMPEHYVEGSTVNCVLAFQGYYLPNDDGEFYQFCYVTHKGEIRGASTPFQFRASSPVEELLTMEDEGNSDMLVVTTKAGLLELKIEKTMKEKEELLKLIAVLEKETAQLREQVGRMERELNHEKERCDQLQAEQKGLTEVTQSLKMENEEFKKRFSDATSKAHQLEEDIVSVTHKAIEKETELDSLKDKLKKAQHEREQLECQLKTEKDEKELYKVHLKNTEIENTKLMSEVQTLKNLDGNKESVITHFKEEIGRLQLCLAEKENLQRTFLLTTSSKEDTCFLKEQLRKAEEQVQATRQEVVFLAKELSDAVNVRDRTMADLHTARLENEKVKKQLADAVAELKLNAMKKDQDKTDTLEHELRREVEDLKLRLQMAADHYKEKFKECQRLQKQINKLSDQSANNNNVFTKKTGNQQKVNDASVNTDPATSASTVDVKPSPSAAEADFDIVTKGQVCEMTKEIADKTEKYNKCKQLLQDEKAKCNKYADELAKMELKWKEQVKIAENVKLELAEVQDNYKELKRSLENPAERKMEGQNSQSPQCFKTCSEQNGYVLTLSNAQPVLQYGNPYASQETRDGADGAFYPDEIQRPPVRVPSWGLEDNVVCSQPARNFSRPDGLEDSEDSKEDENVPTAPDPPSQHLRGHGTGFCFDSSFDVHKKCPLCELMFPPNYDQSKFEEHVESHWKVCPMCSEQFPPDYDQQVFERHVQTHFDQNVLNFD

In one test the target is HA-tagged NRP (aa 1–577) (UniProt Q96CV9). Nature of the test: SEC.
The next test deals with VSV-NRP-ΔN (aa 300–577) (UniProt Q96CV9). Nature of the test: co-IP.
Test [1] addresses VSV-tagged NRP (wild type, aa 1–577) (UniProt Q96CV9). Nature of the test: co-IP.
Test [2] deals with endogenous NRP of C8166 and C91PL cells (human (endogenous in C8166 and C91PL)) (UniProt Q96CV9). Nature of the test: co-IP.
The target of another test is Flag-tagged TAX1BP1 (UniProt Q86VP1). Description: co-IP.
The target in test [3] is Tax1 (wild-type, pSG5M-Tax1, expressed in 293T cells) (HTLV-1) (UniProt P03409). Description: co-IP.

These are yes or no findings as the source states them, for the method shown. For part of these data: In cells and extracts the contact can be indirect. Some entries that bind do so weakly or less than the wild type.

Consider “Tax1 (expressed in HeLa cells) (from UniProt P03409 1-353)”, for which the binding entry in the test with HA-tagged NRP (aa 1–577) is “binds”.

With “Tax1 (wild-type, pSG5M-Tax1, expressed in 293T cells) (from UniProt P03409 1-353)”, the binding result (with VSV-NRP-ΔN (aa 300–577); in test [1]) was “binds” each time.

“Tax1 expressed in HTLV-1-infected cell lines C8166 and C91PL (from UniProt P03409 1-353)”: the binding result in test [2] is reported as “binds”. For the substance “VSV-tagged NRP (wild type, aa 1–577) (from UniProt Q96CV9 1-577)”, the binding result (with Flag-tagged TAX1BP1; in test [3]) was “binds” each time.
